Experimental data as given in patent publication US20250145665A1, “MACROCYCLIC PEPTIDES USEFUL AS MODULATORS OF TNF ALPHA” (Bristol-Myers Squibb Company, priority 2023, published 2025).
Where two headings read alike, the source gives them in different places. Some entries share one result that the patent states for a list of compounds. Starred links: 1 amine or outer side, 2 acyl side, 3 side chain; linkers in the order of their positions; H or OH if unused. Positions of bridges follow the written chain, without caps; N, C: chain ends. Non-standard residues stand in square brackets, D forms with d. Residues, ends and D or L forms follow the SMILES beside them. *: point of attachment. X5 = Cn1nc(C(=O)Nc2ccc(-c3ccc(C[C@H](N[*:1])C(=O)[*:2])cc3)cc2)c2ccccc21; dArg(Nω-CH2C6H4-3-CH2Gua) = N=C(N)NCc1cccc(CNC(=N)NCCC[C@@H](N)C(=O)O)c1; Bip(4'-NHBz) = N[C@@H](Cc1ccc(-c2ccc(NC(=O)c3ccccc3)cc2)cc1)C(=O)O; Bip(4'-NH) = O=C([C@H](Cc1ccc(-c2ccc(N[*:3])cc2)cc1)N[*:1])[*:2]; dArg(ω-(3-HO-benzyl)) = N=C(NCCC[C@@H](N)C(=O)O)NCc1cccc(O)c1; Indazole3carbonyl(1-CH2COOH) = O=C(O)Cn1nc(C(=O)*)c2ccccc21; Bip(4'-COOH) = N[C@@H](Cc1ccc(-c2ccc(C(=O)O)cc2)cc1)C(=O)O; X25 = N=C(N)Nc1cccc(CNC(=N)NCCC[C@@H](N[*:1])C(=O)[*:2])c1; Indole3carbonyl(1-CH2COOH) = O=C(O)Cn1cc(C(=O)*)c2ccccc21; Ala(imidazol-2-yl) = N[C@@H](Cc1ncc[nH]1)C(=O)O; dArg(ω-Bn) = N=C(NCCC[C@@H](N)C(=O)O)NCc1ccccc1; Ala(morpholin-4-yl) = N[C@@H](CN1CCOCC1)C(=O)O; Phe(3-CONH2) = NC(=O)c1cccc(C[C@H](N)C(=O)O)c1; Bip = N[C@@H](Cc1ccc(-c2ccccc2)cc1)C(=O)O; Tiq1c(1S) = O=C(O)[C@H]1NCCc2ccccc21; 2Pal = N[C@@H](Cc1ccccn1)C(=O)O; Tic = O=C(O)[C@@H]1Cc2ccccc2CN1; Cha = N[C@@H](CC1CCCCC1)C(=O)O; Tle = CC(C)(C)[C@H](N)C(=O)O; Aze = O=C(O)[C@@H]1CCN1; Sar = CNCC(=O)O

The chains behind the UniProt entries cited, without tags or fusion partners. Residues count along the entry.
UniProt P01375, 77-233 limits assumed: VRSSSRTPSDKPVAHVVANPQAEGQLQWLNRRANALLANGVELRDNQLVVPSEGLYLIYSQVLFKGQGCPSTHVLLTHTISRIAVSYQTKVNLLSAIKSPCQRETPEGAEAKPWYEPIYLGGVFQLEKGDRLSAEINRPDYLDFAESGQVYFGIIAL

Target: TNFα (Homo sapiens, UniProt P01375)
Assay: TNF-Induced HEK-Blue Assay
Type: cell-based
Conditions: read-out: IC50 values measured in the TNF induced HEK-Blue assay
[1] = summary statement for all examples

Row | SMILES | IC50 [1] | IC50
1 | CC(C)C[C@@H]1NC(=O)[C@H](Cc2cccc(C(N)=O)c2)NC(=O)[C@H](C(C)C)NC(=O)[C@@H]2CCCN2C(=O)[C@H](C(C)C)NC(=O)[C@@H](CCCNC(=N)NCc2cccc(CNC(=N)N)c2)NC(=O)[C@H](CC(=O)O)NC(=O)[C@H](Cc2ccc(O)cc2)NC(=O)CN(C)C(=O)[C@H](Cc2ccc(-c3ccc(NC(=O)c4nn(CC(=O)O)c5ccccc45)cc3)cc2)NC(=O)[C@H](Cc2ccc(-c3ccccc3)cc2)NC(=O)[C@H](CN2CCOCC2)NC(=O)CSC[C@@H](C(=O)NCC(N)=O)NC1=O [Example 620] ({CH2CO}-[Ala(morpholin-4-yl)][Bip][Bip(4'-NH)](Indazole3carbonyl(1-CH2COOH))[Sar]YD[dArg(Nω-CH2C6H4-3-CH2Gua)]VPV[Phe(3-CONH2)]LCG-NH2; thioether N-13) | ≤ 25 µM | –
2 | CC[C@H](C)[C@@H]1NC(=O)[C@@H](CCCNC(=N)N)NC(=O)[C@H](CC(=O)O)NC(=O)[C@H](Cc2cnc[nH]2)NC(=O)CN(C)C(=O)[C@H](Cc2ccc(-c3ccc(NC(=O)c4ccccc4)cc3)cc2)NC(=O)[C@H](Cc2ccc(-c3ccc(C(=O)O)cc3)cc2)NC(=O)[C@H](CC2CCCCC2)NC(=O)CSC[C@@H](C(=O)NCC(N)=O)NC(=O)[C@H](CC(C)C)NC(=O)[C@H](Cc2cnc[nH]2)NC(=O)[C@H](C(C)C)NC(=O)[C@@H]2c3ccccc3CCN2C1=O [Example 373] ({CH2CO}-[Cha][Bip(4'-COOH)][Bip(4'-NHBz)][Sar]HD[dR]I[Tiq1c(1S)]VHLCG-NH2; thioether N-13) | ≤ 25 µM | –
3 | CC(C)C[C@@H]1NC(=O)[C@H](Cc2ccc(O)cc2)NC(=O)[C@H](C(C)C)NC(=O)[C@@H]2Cc3ccccc3CN2C(=O)[C@H](C(C)C)NC(=O)[C@@H](CCCNC(=N)N)NC(=O)[C@H](CC(=O)O)NC(=O)[C@@H]2CCCN2C(=O)CN(C)C(=O)[C@H](Cc2ccc(-c3ccc(NC(=O)c4ccccc4)cc3)cc2)NC(=O)[C@H](Cc2ccc(-c3ccc(C(=O)O)cc3)cc2)NC(=O)[C@H](CC2CCCCC2)NC(=O)CSC[C@@H](C(=O)NCC(N)=O)NC1=O [Example 383] ({CH2CO}-[Cha][Bip(4'-COOH)][Bip(4'-NHBz)][Sar]PD[dR]V[Tic]VYLCG-NH2; thioether N-13) | ≤ 25 µM | –
4 | CC(C)C[C@@H]1NC(=O)[C@H](Cc2cccc(C(N)=O)c2)NC(=O)[C@H](C(C)C)NC(=O)[C@@H]2CCCN2C(=O)[C@H](C(C)C)NC(=O)[C@@H](CCCNC(=N)NCc2ccccc2)NC(=O)[C@H](CC(=O)O)NC(=O)[C@H](Cc2ccc(O)cc2)NC(=O)CN(C)C(=O)[C@H](Cc2ccc(-c3ccc(NC(=O)c4cn(CC(=O)O)c5ccccc45)cc3)cc2)NC(=O)[C@H](Cc2ccc(-c3ccccc3)cc2)NC(=O)[C@H](CN2CCOCC2)NC(=O)CSC[C@@H](C(=O)NCC(N)=O)NC1=O [Example 601] ({CH2CO}-[Ala(morpholin-4-yl)][Bip][Bip(4'-NH)](Indole3carbonyl(1-CH2COOH))[Sar]YD[dArg(ω-Bn)]VPV[Phe(3-CONH2)]LCG-NH2; thioether N-13) | ≤ 25 µM | –
5 | CC[C@H](C)[C@@H]1NC(=O)[C@@H]2CCN2C(=O)[C@H]([C@@H](C)CC)NC(=O)[C@@H](CCCNC(=N)N)NC(=O)[C@H](CC(=O)O)NC(=O)[C@H](Cc2ccc(O)cc2)NC(=O)CN(C)C(=O)[C@H](Cc2ccc(-c3ccc(NC(=O)c4nn(C)c5ccccc45)cc3)cc2)NC(=O)[C@H](Cc2ccc(-c3ccccc3)cc2)NC(=O)[C@H](C(C)(C)C)NC(=O)CSC[C@@H](C(=O)NCC(N)=O)NC(=O)[C@H](CC(C)C)NC(=O)[C@H](Cc2ccc(O)cc2)NC1=O [Example 337] ({CH2CO}-[Tle][Bip][X5][Sar]YD[dR]I[Aze]IYLCG-NH2; thioether N-13) | – | ≤ 25 µM
6 | CC(C)C[C@@H]1NC(=O)[C@H](CCCNC(=N)N)NC(=O)[C@H](C(C)C)NC(=O)[C@@H]2CCCN2C(=O)[C@H](C(C)C)NC(=O)[C@@H](CCCNC(=N)NCc2cccc(NC(=N)N)c2)NC(=O)[C@H](CC(=O)O)NC(=O)[C@@H]2CCCN2C(=O)CN(C)C(=O)[C@H](Cc2ccc(-c3ccc(NC(=O)c4nn(CC(=O)O)c5ccccc45)cc3)cc2)NC(=O)[C@H](Cc2ccc(-c3ccccc3)cc2)NC(=O)[C@H](CN2CCOCC2)NC(=O)CSC[C@@H](C(=O)NCC(N)=O)NC1=O [Example 435] ({CH2CO}-[Ala(morpholin-4-yl)][Bip][Bip(4'-NH)](Indazole3carbonyl(1-CH2COOH))[Sar]PD[X25]VPVRLCG-NH2; thioether N-13) | ≤ 25 µM | –
7 | CC(C)C[C@@H]1NC(=O)[C@H](Cc2ncc[nH]2)NC(=O)[C@H](C(C)C)NC(=O)[C@@H]2CCCN2C(=O)[C@H](C(C)C)NC(=O)[C@@H](CCCNC(=N)NCc2cccc(O)c2)NC(=O)[C@H](CC(=O)O)NC(=O)[C@H](Cc2ccccn2)NC(=O)CN(C)C(=O)[C@H](Cc2ccc(-c3ccc(NC(=O)c4nn(CC(=O)O)c5ccccc45)cc3)cc2)NC(=O)[C@H](Cc2ccc(-c3ccc(C(=O)O)cc3)cc2)NC(=O)[C@H](CC2CCCCC2)NC(=O)CSC[C@@H](C(=O)NCC(N)=O)NC1=O [Example 551] ({CH2CO}-[Cha][Bip(4'-COOH)][Bip(4'-NH)](Indazole3carbonyl(1-CH2COOH))[Sar][2Pal]D[dArg(ω-(3-HO-benzyl))]VPV[Ala(imidazol-2-yl)]LCG-NH2; thioether N-13) | ≤ 25 µM | –
